These are yes or no findings as the source states them, for the method shown. Binding seen in cells or lysates may run through a third protein. Some binding calls cover weakened binding; strength is not graded here. For some assays here: Where a sequence is shown, tags or fusion partners need not be part of it.

Protein sequences, listed by entry. Tags and fused reporters are not part of them.
UniProt P08183: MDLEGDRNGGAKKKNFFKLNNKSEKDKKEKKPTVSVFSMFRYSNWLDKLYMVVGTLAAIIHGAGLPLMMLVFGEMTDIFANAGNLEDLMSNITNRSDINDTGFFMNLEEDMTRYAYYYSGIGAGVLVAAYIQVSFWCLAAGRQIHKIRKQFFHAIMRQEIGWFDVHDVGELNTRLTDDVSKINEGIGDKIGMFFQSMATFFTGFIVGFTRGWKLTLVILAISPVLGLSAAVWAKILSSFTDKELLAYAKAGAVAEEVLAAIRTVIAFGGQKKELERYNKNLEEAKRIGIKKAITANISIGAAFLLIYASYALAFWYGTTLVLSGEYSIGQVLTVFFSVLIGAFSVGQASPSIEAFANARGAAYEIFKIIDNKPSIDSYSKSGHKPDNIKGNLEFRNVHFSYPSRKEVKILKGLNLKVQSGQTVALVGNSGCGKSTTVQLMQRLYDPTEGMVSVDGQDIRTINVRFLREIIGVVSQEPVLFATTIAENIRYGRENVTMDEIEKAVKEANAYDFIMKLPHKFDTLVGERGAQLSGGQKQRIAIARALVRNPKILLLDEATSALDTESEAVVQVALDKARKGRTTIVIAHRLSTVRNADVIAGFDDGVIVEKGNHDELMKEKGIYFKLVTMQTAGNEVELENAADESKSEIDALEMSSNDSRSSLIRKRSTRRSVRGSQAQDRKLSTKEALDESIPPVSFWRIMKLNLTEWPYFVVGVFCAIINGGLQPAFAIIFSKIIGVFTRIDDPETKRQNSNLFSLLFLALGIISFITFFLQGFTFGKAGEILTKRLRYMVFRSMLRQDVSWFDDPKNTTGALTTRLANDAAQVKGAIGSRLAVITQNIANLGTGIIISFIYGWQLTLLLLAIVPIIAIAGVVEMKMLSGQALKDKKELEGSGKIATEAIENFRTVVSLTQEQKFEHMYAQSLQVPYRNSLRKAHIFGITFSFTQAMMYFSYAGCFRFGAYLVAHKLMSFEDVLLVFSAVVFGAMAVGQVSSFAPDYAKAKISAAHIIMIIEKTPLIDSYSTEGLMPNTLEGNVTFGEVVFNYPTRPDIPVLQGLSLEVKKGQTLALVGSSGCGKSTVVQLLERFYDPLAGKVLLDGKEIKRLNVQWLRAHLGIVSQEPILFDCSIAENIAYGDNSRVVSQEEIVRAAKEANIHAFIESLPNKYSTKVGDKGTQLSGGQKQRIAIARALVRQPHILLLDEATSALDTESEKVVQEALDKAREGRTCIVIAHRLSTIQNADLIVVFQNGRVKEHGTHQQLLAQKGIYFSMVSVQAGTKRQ

This is an account of results in PMC8466742.

The target in experiment [1] is Myc-ABCB1 (ATP-binding cassette subfamily B member 1) (UniProt P08183). The experiment can be described thus: co-IP; HEK293T co-transfected with Myc-ABCB1 with or without 3 x Flag-MARCH8; IP with anti-Myc antibody, immunoblot with anti-Flag and anti-Myc; lysis buffer 50 mM Tris-HCl pH 8.0, 150 mM NaCl, 1% NP-40, 0.5% sodium deoxycholate, 0.2% SDS.
Experiment [2] addresses endogenous ABCB1 (human (endogenous in MCF-7/ADR and A549/Taxol)) (UniProt P08183). As to the kind of experiment: co-IP; endogenous proteins in lysates of MCF-7/ADR and A549/Taxol cells; IP overnight at 4 °C with indicated antibody and protein A-Sepharose; lysis buffer 50 mM Tris-HCl pH 8.0, 150 mM NaCl, 1% NP-40, 0.5% sodium deoxycholate, 0.2% SDS.

B1: 3 x Flag-MARCH8 (membrane-associated RING-CH 8) (enzyme, UniProt Q5T0T0 1-291)
chain: MSMPLHQISAIPSQDAISARVYRSKTKEKEREEQNEKTLGHFMSHSSNISKAGSPPSASAPAPVSSFSRTSITPSSQDICRICHCEGDDESPLITPCHCTGSLHFVHQACLQQWIKSSDTRCCELCKYEFIMETKLKPLRKWEKLQMTSSERRKIMCSVTFHVIAITCVVWSLYVLIDRTAEEIKQGQATGILEWPFWTKLVVVAIGFTGGLLFMYVQCKVYVQLWKRLKAYNRVIYVQNCPETSKKNIFEKSPLTEPNFENKHGYGICHSDTNSSCCTEPEDTGAEIIHV
Take B1: the binding entry in experiment [1] is “binds”.

B2: endogenous MARCH8 (enzyme, UniProt Q5T0T0 1-291)
chain: MSMPLHQISAIPSQDAISARVYRSKTKEKEREEQNEKTLGHFMSHSSNISKAGSPPSASAPAPVSSFSRTSITPSSQDICRICHCEGDDESPLITPCHCTGSLHFVHQACLQQWIKSSDTRCCELCKYEFIMETKLKPLRKWEKLQMTSSERRKIMCSVTFHVIAITCVVWSLYVLIDRTAEEIKQGQATGILEWPFWTKLVVVAIGFTGGLLFMYVQCKVYVQLWKRLKAYNRVIYVQNCPETSKKNIFEKSPLTEPNFENKHGYGICHSDTNSSCCTEPEDTGAEIIHV
For the molecule B2, the binding entry in experiment [2] was “binds”.
